Experimental data published in PMC12386351, “Monoterpene Indole Alkaloids with Antimicrobial Activity Against Helicobacter pylori” (International Journal of Molecular Sciences, 2025).

Tested on: VERO cells
Assay: MTT cytotoxicity assay on VERO cells
Format: cell-based
Conditions: CC50 VERO cells / MIC H. pylori; MIC used instead of IC50
Experimental: The cytotoxicity of the compounds showing antibacterial activity was evaluated in VERO cell cultures (FTVE, Vircell, S.L., Granada, Spain) using the standard MTT colorimetric assay. Briefly, sub confluent cell cultures were exposed for 48 h, to 2-fold dilutions of each assayed compound, ranging from 80 to 10 µM, in 100 μL CO2-independent medium supplemented with 5% FBS and […] gentamicin (Gibco^TM, Grand Island, NY, USA) (CO2-ind-FBS5). In each assay, cells exposed to equivalent concentrations of DMSO as solvent and untreated cells were kept as controls; untreated cells were considered the baseline for 100% viability.
After 48-h incubation at 37 °C, the culture medium was replaced by fresh CO2-ind-FBS5 medium supplemented with 0.5 mg/mL MTT (Thermo Fisher Scientific, Waltham, MA, USA). Upon a 3-h incubation at 37 °C, the medium was carefully discarded, and the purple formazan crystals formed were dissolved in DMSO (100 μL/well) during a 15-min incubation with agitation at room temperature, followed by absorbance reading at 570 nm, with reference wavelength at 630 nm (BioTek Epoch2, Agilent, Winooski, VT, USA). Data analysis and visualization were performed using Excel (v.2408) and RStudio (v. 2024.04.2). When possible, the half maximal cytotoxic concentration (CC50) values were determined for each compound by fitting a dose–response three- or four-parameter log-logistic function to the triplicate experimental points using RStudio (v.2024.04.2).
The selectivity index (SI) is the ratio of the cytotoxic concentration for 50% of the cells (CC50) to the inhibitory concentration for 50% of the bacteria (IC50). Considering that IC50 values were not calculated, but are expectably lower than the MIC value, the SI was estimated by dividing the CC50 by the MIC. Therefore, this value is necessarily lower than the SI because the MIC, rather than the bacterial half-maximal inhibitory concentration (IC50), was used in the calculation. This approach allows for an estimation of the therapeutic potential of the compound by providing an indication of its selectivity for targeting bacterial cells over host cells, even though the MIC is used instead of the bacterial IC50.
To compare biofilm formation between groups (negative control, H. pylori J99, and compound treatments), one-way analysis of variance (ANOVA) was performed, followed by Tukey’s post-hoc test for multiple comparisons. Data analysis was conducted using Python 3.13.5. Similarly, for the cytotoxicity assay in VERO cells, ANOVA and Tukey’s post-hoc test were also used to compare groups at each tested concentration (ranging from 80 to 10 µM), with DMSO-treated and untreated cells as reference groups.

CCC1CN(C)C2Cc3c([nH]c4ccccc34)C(=NN=Cc3ccccc3O)CC1C2C(=O)OC (centres unmarked) [Compound 5, Dregamine(2′-hydroxybenzylidene)hydrazone]
"SI" (CC50/MIC): >2.8

CCC1CN(C)C2Cc3c([nH]c4ccccc34)C(c3c(OC)ccc4c5c([nH]c34)C3(C(=O)OC)CC4CC(CC)C3N(CC5)C4CC(C)=O)CC1C2C(=O)OC (centres unmarked) [Compound 7, Tabernaelegantinine A]
"SI" (CC50/MIC): >4.0

CCC1CN(C)C2Cc3c([nH]c4ccccc34)C(=NN=Cc3c[nH]c4ccccc34)CC1C2C(=O)OC (centres unmarked) [Compound 4, Dregamine(indolylmethylene)hydrazone]
"SI" (CC50/MIC): >4.7

CCC1CN(C)C2Cc3c([nH]c4ccccc34)C(=NN=CC=Cc3ccccc3)CC1C2C(=O)OC (centres unmarked) [Compound 3, Dregamine(phenylallylidene)hydrazone]
"SI" (CC50/MIC): >2.2

CCC1CN(C)C2Cc3c([nH]c4ccccc34)C(=NN=Cc3c[nH]c4cc(Br)ccc34)CC1C2C(=O)OC (centres unmarked) [Compound 6, Dregamine(6′bromo-3′indolylmethylene)hydrazone]
"SI" (CC50/MIC): >8.0
